Measurements taken from patent US7842660B2, “4-hepten-2-yl salicylate and its use as fragrance ingredient” (Givaudan SA, priority 2004, dated 2010).

Assay: Odor description

CCC#CCC(C)OC(=O)c1ccccc1O (centres unmarked) [4-Heptyn-2-yl salicylate]
Odor description: white-floral scent reminiscent of certain lily species

CC/C=C\C(C)COC(=O)c1ccccc1O (centres unmarked) [(Z)-2-Methyl-3-hexen-1-yl salicylate]
Odor description: floral, green, watery

CC/C=C\CCOC(=O)c1cccc(C)c1O [(Z)-3-Hexen-1-yl 2-hydroxy-3-methylbenzoate]
Odor description: floral, balsamic, slightly green and watery

CC/C=C\CC(C)OC(=O)c1ccccc1O (centres unmarked) [(Z)-4-Hepten-2-yl salicylate]
Odor description: crisp floral and green note reminiscent of aspects of certain lily species and frangipani
Odor description (listed as (Z)-4-hepten-2-yl salicylate): very crisp floral and green note reminiscent of aspects of certain lily species and frangipani

Read-outs that look alike come from different tables or passages of the source.
